One substance from article PMC9241232 can be followed below.

Amino acid sequences for entries named in this document (tags omitted).
UniProt P63172: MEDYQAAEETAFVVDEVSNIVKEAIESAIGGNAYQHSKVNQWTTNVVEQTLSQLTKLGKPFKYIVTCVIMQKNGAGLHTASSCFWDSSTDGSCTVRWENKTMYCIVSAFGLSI

Test [1] has as its target His-tagged HrpA-M2 (Neisseria meningitidis strain MC58) (UniProt C0KXI4). The test can be described thus: pull-down; purified His-tagged HrpA-M2 or HrpA-M3 bound to Ni-NTA resin, incubated 2 h at 4 °C with HeLa cell lysate over-expressing Myc-DYNLT1; washes with NaH2PO4 50 mM, NaCl 300 mM, imidazole 20 mM, pH 8.0; elution with 250 mM imidazole; western blot with anti-polyHis and anti-Myc; only the target purified.

The target of test [2] is His-tagged HrpA-M3 (Neisseria meningitidis strain MC58) (UniProt C0KXI4). Described as above.

Results are given in words; binding and its absence hold for the method and conditions named. In cells and extracts the contact can be indirect. Some results given as binding are weak or reduced against the parent protein; the word gives no strength.

In the case of “Myc-tagged DYNLT1 (from UniProt P63172 1-113)”, the binding entry is “no binding” in test [1] and “binds” in test [2].
